Data on 36 compounds can be found in the supplement of paper PMC12425257.

Where “and” joins values, the source holds several entries; their conditions need not be identical. Identical values can stand only once. ± gives the standard deviation of the averaged measurements. The list shows a part of the results.

This experiment has as its system Madurella mycetomatis MM55. Briefly: metabolic activity (growth) relative to DMSO growth control; higher = more fungal growth. To be noted: 1 µM.
Take `NS(=O)(=O)c1ccc(N/N=C2\C(=O)Nc3ccc(-c4cnco4)cc32)cc1`: the metabolic activity was determined as 122 ± 6.1%.

Regarding `CC(=O)O.Nc1ncc2ccn(-c3ccc4[nH]ncc4c3)c2n1`, the metabolic activity is 124 ± 34%.

Consider `COCCOCCOc1cc2c(cc1OC)NC(=O)c1ccc(-c3ccc([N+](=O)[O-])c(OC)c3)cc1N2`, for which the metabolic activity worked out at 92.8 ± 4.1%.

As to `CCc1cc(Nc2nccc(-c3c(-c4ccc(OC)c(C(=O)Nc5c(F)cccc5F)c4)nc4ccccn34)n2)c(OC)cc1N1CCC(N2CCN(S(C)(=O)=O)CC2)CC1`, the metabolic activity was found to be 111 ± 15%.

For the compound `O=C(Nc1ccc(NC(=O)C2CCCN(c3cccnn3)C2)cc1)c1ccncc1` (stereo unspecified), the metabolic activity is 89.4 ± 14%.

With `NS(=O)(=O)c1cccc(-c2ccc3nccc(-c4cccc(S(N)(=O)=O)c4)c3c2)c1`, the metabolic activity was determined as 95.7 ± 8.8%.

As to `O=C(Nc1cccnc1)c1cc(-c2ccnc(F)c2)ccc1OCc1ccccc1`, the metabolic activity stood at 111 ± 22%.

As for `Cc1ncc2n1CCN(c1nc(C3=C(c4c[nH]c5sccc45)C(=O)NC3=O)c3ccccc3n1)C2`, the metabolic activity worked out at 114 ± 20%.

For `NC[C@@H](NC(=O)c1ccc(-c2cccnc2)cc1)c1ccccc1`, the metabolic activity worked out at 119 ± 19%.

In the case of `Cc1cc(-c2cnc(N)c3c(-c4ccc5scnc5c4)csc23)n(C)n1`, the metabolic activity stood at 97.95 ± 0.27%.

As for `CCn1cc(-c2ccnc3[nH]c(-c4cccc(CN(C)C)c4)cc23)c(-c2ccc(NC(=O)N(C)C)cc2)n1`, the metabolic activity is 118 ± 16%.

As to `O=C(Nc1n[nH]c2cc(-c3cccc(F)c3)ccc12)C1CC1`, the metabolic activity was 80.1 ± 1.5%.

Take `CN(C)CC(=O)N1CCC(C(=O)Nc2ncc(SCc3ncc(C(C)(C)C)o3)s2)CC1`: the metabolic activity worked out at 82.6 ± 11%.

As to `COc1ccc2[nH]c3c4[nH]c5ccc(OC)cc5c4c4c(c3c2c1)C(=O)NC4=O`, the metabolic activity is 115 ± 24%.

`COc1ccc2nc(-c3cccc(C)n3)nc(Nc3ccncc3)c2c1`: the metabolic activity is 126 ± 63%.

On to `CC(C)(C)OC(=O)NCCCNS(=O)(=O)c1ccc(Nc2ncc3c(n2)Nc2ccsc2C(=O)N3)cc1`, for which the metabolic activity came to 93.8 ± 24%.

Regarding `COc1cccc(-n2ncc3c(N/N=C/c4ccncc4)ncnc32)c1`, the metabolic activity is 81.9 ± 9.8%.

As to `Cn1ccc2ncnc(Oc3ccc(NC(=O)Nc4ccccc4)cc3)c21`, the metabolic activity turned out to be 102 ± 27%.

On to `CN(C)Cc1nc2c(sc3ccc(-c4ccc(O)cc4)cc32)c(=O)[nH]1.Cl`, for which the metabolic activity stood at 98.9 ± 21%.

As to `COc1ccc2cc(-c3c(-c4ccncc4)nc(-c4ccc(S(C)(=O)=O)cc4C)n3C)ccc2c1`, the metabolic activity worked out at 99.6 ± 33%.

Consider `O=C(Nc1cnccn1)Nc1ccnc2c(F)cccc12`, for which the metabolic activity amounted to 116 ± 19%.

Regarding `Nc1nc(-c2ccccc2F)c(-c2ccnc3ccccc23)s1`, the metabolic activity came out at 94 ± 17%.

For `CNc1nc(Nc2ccc(C(=O)N3CCOCC3)cc2OC)nc2[nH]cc(Cl)c12`, the metabolic activity amounted to 105 ± 7.7%.

In the case of `CCC(NN(C)C)=C1C(=O)Nc2ccc(C(C)=O)cc21`, the metabolic activity is 108 ± 61%.

Turning to `Cc1cc(O)cc(C)c1/C=C/c1cncc(C(N)=O)c1`, the metabolic activity came to 101 ± 42%.

As to `CNc1nc(-c2ccc3c(N)n[nH]c3c2)cc(N2C[C@@H](C(=O)Nc3ccccc3)CC[C@H]2C)n1`, the metabolic activity was determined as 88.7 ± 18%.

Take `COc1ccc(-c2cc3c(C)nc(N)nc3n([C@H]3CC[C@H](O)CC3)c2=O)cn1`: the metabolic activity is 91.5 ± 23%.

With `CN(C)CCN(C)C(=O)c1cc(-c2ccncc2)c(-c2ccc(Cl)c(O)c2)o1`, the metabolic activity came to 101 ± 17%.

For `COc1cc2nccc(Nc3ccc(OCc4ccc(NC(C)=O)cc4)cc3)c2cc1OC`, the metabolic activity amounted to 89.5 ± 5.7%.

Take `Cc1ccc(-n2c(=O)c3cnc(Nc4ccc(N5CCN(C)CC5)cc4)nc3n3ccnc23)c(Cl)c1.O=C(O)C(F)(F)F.O=C(O)C(F)(F)F`: the metabolic activity turned out to be 108 ± 27%.

As to `COc1ccccc1-c1cc(/C=C2\C(=O)Nc3ncc(Br)cc32)cc(Br)c1O`, the metabolic activity stood at 82.8 ± 1.4%.

With `CCc1c(-c2nonc2N)nc2c(C#Cc3ccccc3)ccc(N3C[C@H](N)[C@@H](O)C3)n12`, the metabolic activity is 111 ± 39%.

Take `CCNc1n[nH]c2ccc(C3C(C#N)=C(C)NC(C)=C3C#N)cc12`: the metabolic activity amounted to 88.334 ± 0.065%.

Consider `COCCNC(=O)c1ccc(-c2cc(C(=O)NC3CC3)cc(F)c2C)cc1`, for which the metabolic activity is 106 ± 34%.

Take `C[C@@H]1CCN(C(=O)CC#N)C[C@@H]1N(C)c1ncnc2[nH]ccc12`: the metabolic activity was found to be 86 ± 16%.

For `C[C@@H]1CN(c2cc(-c3n[nH]c4ccc(OC5(C)CC5)cc34)ncn2)C[C@H](C)O1`, the metabolic activity is 87.7% and 106%.
